Results are given in words; binding and its absence hold for the method and conditions named. Binding seen in cells or lysates may run through a third protein. Here binding means that the protein was enriched with, or labelled near, the bait; the list need not be complete.
Biological target: T1, TMEM11 (mouse (endogenous in mouse cardiomyocytes)) (UniProt Q8BK08)
T1 sequence: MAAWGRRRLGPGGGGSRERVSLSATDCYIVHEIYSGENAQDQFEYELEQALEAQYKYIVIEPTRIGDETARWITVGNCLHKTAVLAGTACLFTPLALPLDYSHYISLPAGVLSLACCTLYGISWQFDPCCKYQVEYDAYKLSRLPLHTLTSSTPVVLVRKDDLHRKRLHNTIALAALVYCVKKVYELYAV
Experiment: affinity purification with mass spectrometry; immunoprecipitation with anti-TMEM11 antibody from isolated cardiomyocytes, LC-MS/MS of the samples

Amino acid sequences for entries named in this document (tags omitted).
UniProt Q9Z120: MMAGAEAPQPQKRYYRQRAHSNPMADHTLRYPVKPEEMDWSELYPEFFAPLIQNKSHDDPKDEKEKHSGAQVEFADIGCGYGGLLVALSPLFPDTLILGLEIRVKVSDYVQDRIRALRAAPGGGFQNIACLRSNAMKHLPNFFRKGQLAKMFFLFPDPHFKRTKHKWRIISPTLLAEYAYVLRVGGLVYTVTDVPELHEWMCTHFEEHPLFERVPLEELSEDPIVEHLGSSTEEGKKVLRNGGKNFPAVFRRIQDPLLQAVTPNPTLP

binding: binds
Substance: METTL1 (from UniProt Q9Z120 1-268) (enzyme)

Reference: article PMC10307882
